Test results: patent publication US20160145222A1, “Methods for Controlling Pests in Soybean” (BASF SE, priority 2013, published 2016)
Some entries share one result that the patent states for a list of compounds.

What was measured:
Assay type in all cases: in vivo
[1] = system: Euschistus heros; assay: Neotropical Brown Stink Bug (Euschistus heros) spray test on soybean pods; details: 100 ppm; sprayed; adult stage E. heros; after 5 days
[2] = system: Nezara viridula; assay: Green Soldier Stink Bug (Nezara viridula) spray test on soybean pods; details: sprayed, late 3rd instar N. viridula, after 5 days
[3] = system: Halyomorpha halys; assay: Brown Marmorated Stink Bug (Halyomorpha halys) spray test on peanuts and soybean seeds; details: 100 ppm; sprayed; adult stage H. halys; after 5 days

| Structure (SMILES) | mortality in comparison with untreated controls [1] | mortality in comparison with untreated controls ([2]; 100 ppm) | mortality in comparison with untreated controls ([2]; 500 ppm) | mortality in comparison with untreated controls [3] |
| --- | --- | --- | --- | --- |
| O=C(CC1CCCO1)NCc1ccc(C2=NSC(c3cc(Cl)c(F)c(Cl)c3)(C(F)(F)F)C2)cc1Cl (centres unmarked) [Compound 3-49] | over 75% | over 75% | over 75% |  |
| COCC(=O)NCc1ccc(C2=NSC(c3cc(Cl)c(F)c(Cl)c3)(C(F)(F)F)C2)cc1Cl (centres unmarked) [Compound 3-112] |  | over 75% | over 75% | over 75% |
| O=C(NCC1CCCC1)c1ccc(C2=NSC(c3cc(Cl)c(F)c(Cl)c3)(C(F)(F)F)C2)cc1Cl (centres unmarked) [Compound 2-38] |  | over 75% | over 75% | over 75% |
| Cc1cc(C2=NSC(c3cc(Cl)c(F)c(Cl)c3)(C(F)(F)F)C2)ccc1C(=O)NC1(C#N)CCC1 (racemic) [Compound 2-61] | over 75% | over 75% | over 75% |  |
| CC(=O)NCc1ccc(C2=NSC(c3cc(Cl)c(Cl)c(Cl)c3)(C(F)(F)F)C2)cc1F (centres unmarked) [Compound 3-24] |  | over 75% | over 75% | over 75% |
| N#CC1(NC(=O)c2ccc(C3=NSC(c4cc(Cl)c(F)c(Cl)c4)(C(F)(F)F)C3)cc2Cl)CCCC1 (racemic) [Compound 2-74] | over 75% | over 75% | over 75% |  |
| CCCC(=O)NCc1ccc(C2=NSC(c3cc(Cl)c(F)c(Cl)c3)(C(F)(F)F)C2)cc1Cl (centres unmarked) [Compound 3-74] | over 75% | over 75% | over 75% |  |
| Cc1cc(C2=NSC(c3cc(Cl)cc(Cl)c3)(C(F)(F)F)C2)ccc1C(=O)NCC1CC1(F)F (racemic) [Compound 2-86] | over 75% | over 75% | over 75% |  |
| O=C(NCC1CC1)c1ccc(C2=NSC(c3cc(Cl)c(F)c(Cl)c3)(C(F)(F)F)C2)cc1Cl (centres unmarked) [Compound 2-41] |  | over 75% | over 75% | over 75% |
| O=C(CC(F)(F)F)NCc1ccc(C2=NSC(c3cc(Br)c(F)c(Br)c3)(C(F)(F)F)C2)cc1Cl (centres unmarked) [Compound 3-109] | over 75% | over 75% | over 75% |  |
| CC(=O)NCc1ccc(C2=NSC(c3cc(C(F)(F)F)cc(C(F)(F)F)c3)(C(F)(F)F)C2)cc1Cl (centres unmarked) [Compound 3-104] |  | over 75% | over 75% | over 75% |
| CCCC(=O)NCc1ccc(C2=NSC(c3cc(C(F)(F)F)cc(C(F)(F)F)c3)(C(F)(F)F)C2)cc1Cl (centres unmarked) [Compound 3-106] | over 75% | over 75% | over 75% |  |
| CS(=O)(=O)CC(=O)NCc1ccc(C2=NSC(c3cc(C(F)(F)F)cc(C(F)(F)F)c3)(C(F)(F)F)C2)cc1Cl (centres unmarked) [Compound 3-107] | over 75% | over 75% | over 75% |  |
| C#CCNC(=O)c1ccc(C2=NSC(c3cc(Cl)c(F)c(Cl)c3)(C(F)(F)F)C2)cc1Cl (centres unmarked) [Compound 2-34] |  | over 75% | over 75% | over 75% |
| N#CC1(NC(=O)c2ccc(C3=NSC(c4cc(Cl)c(F)c(Cl)c4)(C(F)(F)F)C3)cc2Cl)CCC1 (racemic) [Compound 2-62] | over 75% | over 75% | over 75% |  |
| CNC(=O)NN=Cc1ccc(C2=NSC(c3cc(Cl)c(Cl)c(Cl)c3)(C(F)(F)F)C2)cc1Cl (centres unmarked) [Compound 1-33] | over 75% | over 75% | over 75% |  |
| O=C(NCCC(F)=C(F)F)c1ccc(C2=NSC(c3cc(Cl)c(F)c(Cl)c3)(C(F)(F)F)C2)cc1Cl (centres unmarked) [Compound 2-39] |  | over 75% | over 75% | over 75% |
| C=CCNC(=O)c1ccc(C2=NSC(c3cc(Cl)c(F)c(Cl)c3)(C(F)(F)F)C2)cc1Cl (centres unmarked) [Compound 2-35] |  | over 75% | over 75% | over 75% |
| N#CC1(CNC(=O)c2ccc(C3=NSC(c4cc(Cl)c(F)c(Cl)c4)(C(F)(F)F)C3)cc2Cl)CC1 (centres unmarked) [Compound 2-23] | over 75% | over 75% | over 75% |  |

| Structure (SMILES) | mortality in comparison with untreated controls [1] | mortality in comparison with untreated controls ([2]; 100 ppm) | mortality in comparison with untreated controls ([2]; 500 ppm) | mortality in comparison with untreated controls [3] |
| --- | --- | --- | --- | --- |
| O=C(CC(F)(F)F)NCc1ccc(C2=NSC(c3cc(Br)cc(C(F)(F)F)c3)(C(F)(F)F)C2)cc1Br (centres unmarked) [Compound 3-83] | over 75% |  | over 75% |  |
| N#CC1(NC(=O)c2ccc(C3=NSC(c4cc(Cl)c(F)c(Cl)c4)(C(F)(F)F)C3)cc2Cl)CC1 (centres unmarked) [Compound 2-26] | over 75% | over 75% | over 75% |  |
| O=C(NCC1CC1)c1ccc(C2=NSC(c3cc(C(F)(F)F)cc(C(F)(F)F)c3)(C(F)(F)F)C2)cc1Cl (racemic) [Compound 2-78] | over 75% | over 75% | over 75% |  |
| Cc1cc(C2=NSC(c3cc(Cl)cc(Cl)c3)(C(F)(F)F)C2)ccc1C(=O)NCC1CCC(F)(F)C1 (centres unmarked) [Compound 2-50] | over 75% | over 75% | over 75% |  |
| Cc1cc(C2=NSC(c3cc(Cl)c(F)c(Cl)c3)(C(F)(F)F)C2)ccc1C(=O)NCC1CCC1 (centres unmarked) [Compound 2-29] | over 75% | over 75% | over 75% |  |
| O=C(CC(F)(F)F)NCc1ccc(C2=NSC(c3cc(C(F)(F)F)cc(C(F)(F)F)c3)(C(F)(F)F)C2)cc1Cl (centres unmarked) [Compound 3-102] | over 75% | over 75% | over 75% |  |
| Cc1cc(C2=NSC(c3cc(Cl)cc(Cl)c3)(C(F)(F)F)C2)ccc1C(=O)NC1(C#N)CCC1 (centres unmarked) [Compound 2-48] | over 75% | over 75% | over 75% |  |
| O=C(NCC1CC(F)(F)C1)c1ccc(C2=NSC(c3cc(Cl)c(F)c(Cl)c3)(C(F)(F)F)C2)cc1Cl (centres unmarked) [Compound 2-22] | over 75% | over 75% | over 75% |  |
| Cc1cc(C2=NSC(c3cc(Cl)c(F)c(Cl)c3)(C(F)(F)F)C2)ccc1C(=O)NC1(C#N)CCCC1 (racemic) [Compound 2-75] | over 75% | over 75% | over 75% |  |
| Cc1cc(C2=NSC(c3cc(Cl)c(F)c(Cl)c3)(C(F)(F)F)C2)ccc1C(=O)NCC1CC1(Cl)Cl (centres unmarked) [Compound 2-31] | over 75% | over 75% | over 75% |  |
| COc1cc(C2=NSC(c3cc(Cl)c(Cl)c(Cl)c3)(C(F)(F)F)C2)ccc1CNC(=O)CC(F)(F)F (centres unmarked) [Compound 3-31] | over 75% | over 75% | over 75% |  |
| CCCC(=O)NCc1ccc(C2=NSC(c3cc(Cl)cc(C(F)(F)F)c3)(C(F)(F)F)C2)cc1Cl (centres unmarked) [Compound 3-160] |  | over 75% | over 75% |  |
| O=C(CC(F)(F)F)NCc1ccc(C2=NSC(c3cc(F)cc(C(F)(F)F)c3)(C(F)(F)F)C2)cc1Cl (centres unmarked) [Compound 3-166] |  |  | over 75% |  |
| O=C(NCc1ccc(C2=NSC(c3cc(Cl)c(F)c(Cl)c3)(C(F)(F)F)C2)cc1Cl)C1CCC1 (centres unmarked) [Compound 3-69] | over 75% | over 75% | over 75% |  |
| CONC(=O)NN=Cc1ccc(C2=NSC(c3cc(Cl)c(Cl)c(Cl)c3)(C(F)(F)F)C2)cc1Cl (centres unmarked) [Compound 1-29] |  | over 75% | over 75% |  |
| O=C(NCc1ccc(C2=NSC(c3cc(Cl)cc(C(F)(F)F)c3)(C(F)(F)F)C2)cc1Cl)C1CC1 (centres unmarked) [Compound 3-161] |  | over 75% | over 75% |  |
| CS(=O)(=O)CC(=O)NCc1ccc(C2=NSC(c3cc(Br)c(F)c(Br)c3)(C(F)(F)F)C2)cc1Cl (centres unmarked) [Compound 3-131] |  |  | over 75% |  |
| C=CCNC(=O)c1ccc(C2=NSC(c3cc(Br)cc(C(F)(F)F)c3)(C(F)(F)F)C2)cc1Cl (racemic) [Compound 2-64] |  | over 75% | over 75% |  |
| CCN(Cc1ccc(C2=NSC(c3cc(Cl)cc(Cl)c3)(C(F)(F)F)C2)cc1Cl)C(C)=O (centres unmarked) [Compound 3-5] |  | over 75% | over 75% |  |
